Results are given in words; binding and its absence hold for the method and conditions named. Binding seen in cells or lysates may run through a third protein. Some binding calls cover weakened binding; strength is not graded here. For some assays here: Sequences can lack the tags named with a protein.

In assay [1] the target is T1, Coiled-coil-helix-coiled-coil-helix domain-containing protein 4 (rat (endogenous in PASMCs)) (UniProt Q5BJN5).
T1 sequence: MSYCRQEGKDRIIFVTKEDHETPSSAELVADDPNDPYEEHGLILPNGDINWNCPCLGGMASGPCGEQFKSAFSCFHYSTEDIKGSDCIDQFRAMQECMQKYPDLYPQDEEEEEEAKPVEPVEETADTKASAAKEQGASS
Put plainly: co-IP; PASMCs lysates immunoprecipitated with anti-CHCHD4 or anti-SAM50 antibodies, probed with anti-SAM50 or anti-CHCHD4 antibodies; endogenous proteins.

In a further assay the target is T2, HA-tagged CHCHD4 (UniProt Q5BJN5).
T2 sequence: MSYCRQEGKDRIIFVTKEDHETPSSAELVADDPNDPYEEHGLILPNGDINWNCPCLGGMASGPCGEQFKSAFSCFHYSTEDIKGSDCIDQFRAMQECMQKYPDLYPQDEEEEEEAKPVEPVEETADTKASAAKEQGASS
Put plainly: co-IP; Flag-agarose or HA-agarose beads incubated with lysates of HEK 293 cells transfected with Flag-tagged SAM50 alone or together with HA-tagged CHCHD4; probed with anti-HA or anti-Flag antibody.

B1: SAM50 (protein, UniProt Q6AXV4 1-469)
chain: MGTVHARSLEPLPSSGTDFGALGEEAEFVEVEPEAKQEILENKDVVVQHVHFDGLERTKDDIIICEIGEVFKAKNLIEVMRRSHEAREKLLRLGIFRQVDVLIDTCHGEDALPNGLDVTFEVTELRRLTGSYNTMVGNNEGSMVLGLKLPNLLGRAEKVTFQFSYGTKETSYGLSFFKPQPGNFEKNFSVNLYKVTGQFPWSSLRETDRGVSAEYSFPLCKTSHTVKWEGVWRELGCLARTASFAVRKESGHSLKSSLSHAMVIDSRNSSILPRRGALLKVNQELAGYTGGDVSFIKEDFELQLNKPLVLDSVFSTSLWGGMLVPIGDKLSSIADRFYLGGPTSVRGFSMHSIGPQSEGDYLGGEAYWAGGLHLYTPLPFRPGQGGFGELFRTHFFLNAGNLCNLNYGEGPRAHIRKLAECIRWSYGAGIVLRLGNIARLELNYCIPMGVQRGDRICDGVQFGAGIRFL
B1: in assay [1], the binding entry is given as “binds”.

B2: Flag-tagged SAM50 (protein, UniProt Q6AXV4 1-469)
chain: MGTVHARSLEPLPSSGTDFGALGEEAEFVEVEPEAKQEILENKDVVVQHVHFDGLERTKDDIIICEIGEVFKAKNLIEVMRRSHEAREKLLRLGIFRQVDVLIDTCHGEDALPNGLDVTFEVTELRRLTGSYNTMVGNNEGSMVLGLKLPNLLGRAEKVTFQFSYGTKETSYGLSFFKPQPGNFEKNFSVNLYKVTGQFPWSSLRETDRGVSAEYSFPLCKTSHTVKWEGVWRELGCLARTASFAVRKESGHSLKSSLSHAMVIDSRNSSILPRRGALLKVNQELAGYTGGDVSFIKEDFELQLNKPLVLDSVFSTSLWGGMLVPIGDKLSSIADRFYLGGPTSVRGFSMHSIGPQSEGDYLGGEAYWAGGLHLYTPLPFRPGQGGFGELFRTHFFLNAGNLCNLNYGEGPRAHIRKLAECIRWSYGAGIVLRLGNIARLELNYCIPMGVQRGDRICDGVQFGAGIRFL
B2: in the assay with HA-tagged CHCHD4, the binding result is “binds”.

The values above are taken from PMC10339524.
